Results are given in words; binding and its absence hold for the method and conditions named. In cells and extracts the contact can be indirect. Binding calls can cover weak binding; strength is not graded here.

Protein sequences, listed by entry. Tags and fused reporters are not part of them. Lines headed by an entry give the natural chain unless they say otherwise; changes in a name come on top.
UniProt P28074: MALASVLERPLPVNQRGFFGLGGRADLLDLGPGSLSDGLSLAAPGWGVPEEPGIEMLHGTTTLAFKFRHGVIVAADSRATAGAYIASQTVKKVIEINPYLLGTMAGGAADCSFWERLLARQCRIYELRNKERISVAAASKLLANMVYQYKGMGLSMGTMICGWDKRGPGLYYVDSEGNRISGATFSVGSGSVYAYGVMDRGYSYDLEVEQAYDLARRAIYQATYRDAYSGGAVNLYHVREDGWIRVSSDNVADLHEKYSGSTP
UniProt Q02880: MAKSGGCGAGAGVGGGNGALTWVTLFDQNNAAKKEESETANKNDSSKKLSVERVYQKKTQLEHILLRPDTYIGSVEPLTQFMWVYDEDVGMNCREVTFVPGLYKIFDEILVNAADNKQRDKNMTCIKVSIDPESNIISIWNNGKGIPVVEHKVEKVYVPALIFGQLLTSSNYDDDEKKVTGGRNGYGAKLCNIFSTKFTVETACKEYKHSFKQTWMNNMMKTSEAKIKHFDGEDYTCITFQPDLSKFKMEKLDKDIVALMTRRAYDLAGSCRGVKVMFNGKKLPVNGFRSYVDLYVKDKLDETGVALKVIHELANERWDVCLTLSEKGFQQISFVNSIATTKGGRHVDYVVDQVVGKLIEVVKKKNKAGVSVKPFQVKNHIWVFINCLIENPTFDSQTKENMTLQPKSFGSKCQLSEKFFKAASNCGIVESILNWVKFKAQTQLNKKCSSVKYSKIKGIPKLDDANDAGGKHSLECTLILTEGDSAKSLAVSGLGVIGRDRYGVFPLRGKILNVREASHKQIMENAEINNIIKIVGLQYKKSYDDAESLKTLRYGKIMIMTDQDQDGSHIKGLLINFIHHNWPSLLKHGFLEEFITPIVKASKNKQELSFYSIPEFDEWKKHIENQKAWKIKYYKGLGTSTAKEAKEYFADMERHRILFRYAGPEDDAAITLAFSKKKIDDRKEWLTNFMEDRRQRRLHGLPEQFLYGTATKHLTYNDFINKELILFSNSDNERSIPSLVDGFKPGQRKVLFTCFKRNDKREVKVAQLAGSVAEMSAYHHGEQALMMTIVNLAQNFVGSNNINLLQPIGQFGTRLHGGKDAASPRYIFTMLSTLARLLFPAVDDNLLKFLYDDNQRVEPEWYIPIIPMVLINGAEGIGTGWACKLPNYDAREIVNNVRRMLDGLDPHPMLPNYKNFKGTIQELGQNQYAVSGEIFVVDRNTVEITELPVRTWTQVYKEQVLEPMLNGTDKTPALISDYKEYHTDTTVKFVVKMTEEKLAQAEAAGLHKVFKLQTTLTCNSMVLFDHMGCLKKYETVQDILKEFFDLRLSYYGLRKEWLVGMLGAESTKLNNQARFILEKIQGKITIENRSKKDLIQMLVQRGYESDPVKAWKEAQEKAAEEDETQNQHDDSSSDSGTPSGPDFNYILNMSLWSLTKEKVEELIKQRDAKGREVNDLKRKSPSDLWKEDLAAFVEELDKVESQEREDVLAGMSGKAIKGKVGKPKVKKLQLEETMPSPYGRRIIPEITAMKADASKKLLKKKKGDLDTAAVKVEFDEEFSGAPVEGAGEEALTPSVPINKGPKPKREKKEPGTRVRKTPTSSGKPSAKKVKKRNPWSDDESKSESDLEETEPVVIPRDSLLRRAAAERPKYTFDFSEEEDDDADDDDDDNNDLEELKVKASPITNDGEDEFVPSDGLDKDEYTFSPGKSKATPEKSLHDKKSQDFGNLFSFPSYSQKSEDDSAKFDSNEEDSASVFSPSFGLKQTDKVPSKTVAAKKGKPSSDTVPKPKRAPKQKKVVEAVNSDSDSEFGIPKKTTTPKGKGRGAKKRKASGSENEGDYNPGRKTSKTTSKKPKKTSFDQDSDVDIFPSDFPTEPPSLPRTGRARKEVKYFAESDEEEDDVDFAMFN
UniProt P11387: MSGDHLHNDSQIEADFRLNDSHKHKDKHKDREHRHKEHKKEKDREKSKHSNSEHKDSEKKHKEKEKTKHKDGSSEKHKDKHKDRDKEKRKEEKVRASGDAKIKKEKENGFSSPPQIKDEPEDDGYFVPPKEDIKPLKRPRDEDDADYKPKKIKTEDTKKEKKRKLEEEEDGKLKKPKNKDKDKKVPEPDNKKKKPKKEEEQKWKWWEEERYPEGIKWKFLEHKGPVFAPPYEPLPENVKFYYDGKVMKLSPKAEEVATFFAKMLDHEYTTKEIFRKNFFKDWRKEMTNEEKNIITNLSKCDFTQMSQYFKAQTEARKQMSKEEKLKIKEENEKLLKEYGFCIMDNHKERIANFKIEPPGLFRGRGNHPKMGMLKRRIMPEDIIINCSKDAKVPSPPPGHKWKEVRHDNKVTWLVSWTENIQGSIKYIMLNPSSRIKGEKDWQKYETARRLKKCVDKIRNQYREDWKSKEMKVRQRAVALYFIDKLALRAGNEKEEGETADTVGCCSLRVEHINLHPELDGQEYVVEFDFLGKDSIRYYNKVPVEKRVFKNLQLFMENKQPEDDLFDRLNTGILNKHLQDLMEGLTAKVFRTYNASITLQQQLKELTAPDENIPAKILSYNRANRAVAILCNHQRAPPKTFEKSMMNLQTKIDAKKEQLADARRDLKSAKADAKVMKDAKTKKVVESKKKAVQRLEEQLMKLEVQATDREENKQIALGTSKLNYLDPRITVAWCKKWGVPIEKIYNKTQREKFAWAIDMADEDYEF

The assay addresses PSMB5-FLAG (UniProt P28074). The assay can be described thus: co-IP.

Turning to TOP2β (from UniProt Q02880 1-1626), the binding entry is “binds”.
Consider TOP1 (from UniProt P11387 1-765), for which the binding result is recorded as “binds”.

The values are drawn from publication doi:10.1101/707661.
